Taken from: PubChem BioAssay AID743454 (Peter MacCallum Cancer Centre, 2014)
Aim: 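Genes whose loss kills vorinostat-resistant colon cancer cells under vorinostat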 (primary screen). Cells: human HCT116-VR colon cancer cells, selected for vorinostat resistance. Reagent: siRNA pool against human genes, 40 nM siRNA pool. Duration: vorinostat for 24 h, read-out about 72 h after transfection. Conditions: vorinostat at 2.5 µM final. Detection: 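Two measures, CellTiter-Fluor viability and luminescent caspase 3/7 activity, each as fold change against same-plate mock wells, mean of duplicates, then screen-wide robust z-score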. Scale: viability robust z-score: higher = more viable cells than screen typical; caspase robust z-score: higher = more caspase 3/7 activity than screen typical. Rule for the call: 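a knock-down is a hit when classed RV1 or RV2 for lowered viability, or CA1 or CA2 for caspase activation; those lethal without drug were dropped; hits were retested singly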.
The deposit covers about 18,000 reagents; below is a part drawn at random. Over the whole deposit, 450 (2.5%) got an active call. 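Single biological run; no consistent viability z cut-off exists, so the class columns, not z-scores, define the calls.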

| gene | viability hit class | caspase hit class | viability robust z-score | caspase robust z-score | call |
| --- | --- | --- | --- | --- | --- |
| LUC7L (GeneID 55692) | no change | no change | -2.32 | 1.15 | inactive |
| SLBP (GeneID 7884) | no change | no change | -0.76 | 3.17 | inactive |
| PLSCR1 (GeneID 5359) | no change | no change | -0.64 | 4.78 | inactive |
| NBPF1 (GeneID 55672) | no change | no change | 1.44 | 1.2 | inactive |
| RPL26 (GeneID 6154) | no change | no change | -4.57 | -0.96 | inactive |
| RPL34 (GeneID 6164) | no change | no change | -4.34 | -1 | inactive |
| GTF2IRD1 (GeneID 9569) | no change | no change | -0.76 | -1.02 | inactive |

Limited to “viability hit class” (4 entries from above):
SLBP (GeneID 7884)	no change
PLSCR1 (GeneID 5359)	no change
NBPF1 (GeneID 55672)	no change
RPL26 (GeneID 6154)	no change

The results go on:
| gene | viability hit class | caspase hit class | viability robust z-score | caspase robust z-score | call |
| --- | --- | --- | --- | --- | --- |
| MEA1 (GeneID 4201) | no change | no change | -0.26 | 0.08 | inactive |
| ARHGEF10L (GeneID 55160) | no change | no change | -0.34 | -0.8 | inactive |
| CCNY (GeneID 219771) | no change | no change | -0.3 | -0.01 | inactive |
| CABP2 (GeneID 51475) | no change | no change | 0.63 | -0.8 | inactive |
| RIOK2 (GeneID 55781) | no change | no change | -2.03 | -0.93 | inactive |
| FAT2 (GeneID 2196) | no change | no change | 0.45 | 0.06 | inactive |
| STAT4 (GeneID 6775) | no change | no change | 0.77 | 0.2 | inactive |
| ZRANB3 (GeneID 84083) | no change | no change | 0.36 | -0.52 | inactive |
| CIMIP7 (GeneID 646498) | no change | no change | -2.2 | 1.7 | inactive |
| OVGP1 (GeneID 5016) | no change | no change | 0.46 | -0.78 | inactive |
| VCF2 (GeneID 90736) | no change | no change | -0.06 | -0.26 | inactive |
| TXNDC15 (GeneID 79770) | no change | no change | 0.16 | -0.2 | inactive |
| GPIHBP1 (GeneID 338328) | no change | no change | -1.64 | 1.88 | inactive |
| TOX2 (GeneID 84969) | no change | no change | 0.94 | -0.44 | inactive |
| TBC1D3C (GeneID 414060) | no change | no change | 0.74 | 0.16 | inactive |
| ITIH6 (GeneID 347365) | no change | no change | 0.02 | -0.7 | inactive |
